{
  "sequences": {"note": "The chains behind the UniProt entries cited, without tags or fusion partners.", "UniProt P33176": "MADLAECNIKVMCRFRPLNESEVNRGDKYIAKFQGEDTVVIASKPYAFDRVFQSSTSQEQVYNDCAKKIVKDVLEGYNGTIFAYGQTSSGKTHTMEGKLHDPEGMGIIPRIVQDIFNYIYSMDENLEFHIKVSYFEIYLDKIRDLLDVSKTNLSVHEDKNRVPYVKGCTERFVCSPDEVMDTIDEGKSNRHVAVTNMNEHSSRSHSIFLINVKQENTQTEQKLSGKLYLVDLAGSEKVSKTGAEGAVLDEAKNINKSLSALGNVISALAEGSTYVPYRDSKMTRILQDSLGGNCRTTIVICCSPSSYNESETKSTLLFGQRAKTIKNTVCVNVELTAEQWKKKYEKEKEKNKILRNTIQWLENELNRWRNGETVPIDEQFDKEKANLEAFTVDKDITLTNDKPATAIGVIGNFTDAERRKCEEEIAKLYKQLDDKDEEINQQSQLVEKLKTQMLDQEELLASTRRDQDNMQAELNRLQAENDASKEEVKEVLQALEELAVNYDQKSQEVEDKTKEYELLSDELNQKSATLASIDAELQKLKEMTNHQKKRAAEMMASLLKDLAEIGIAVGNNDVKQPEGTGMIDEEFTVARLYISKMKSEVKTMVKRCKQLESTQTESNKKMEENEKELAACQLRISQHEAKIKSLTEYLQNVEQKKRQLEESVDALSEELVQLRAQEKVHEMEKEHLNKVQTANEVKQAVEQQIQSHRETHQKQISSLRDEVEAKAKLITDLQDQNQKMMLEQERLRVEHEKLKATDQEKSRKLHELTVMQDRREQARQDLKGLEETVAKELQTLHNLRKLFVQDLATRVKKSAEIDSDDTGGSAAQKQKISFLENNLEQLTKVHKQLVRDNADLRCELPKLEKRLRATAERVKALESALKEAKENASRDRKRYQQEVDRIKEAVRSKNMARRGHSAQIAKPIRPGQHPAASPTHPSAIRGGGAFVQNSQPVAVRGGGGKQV"},
  "source": "paper PMC6927751",
  "molecules": {"B1": {"name": "Myc-CPT1C (protein, UniProt F1LN46 1-801)", "chain": "MAEAHQASSLLSSLSSDGAEVELSSSVWQEIYLSALRSWKRNLWRVWNDFLAGVVPATPLSWLFLFSTIQLACLLQLDPSLGLMEKIKELLPDWGGQHHQLQGLLAAAVFASCLWGTLIFTLHVALRLLLSHHGWLLEPHGTMSSPTKTWLALVRIFSGRHPRLFSFQRALPRQPVPGAQETVRKYLESMRPVLRDDAFDSVVALANDFLRLQAPRLQLYLQLKSWCASNYVSDWWEEFVYLRSRGSLVNSTYYMMDFLYVTPTPLQAARAGNAVHTLLLYRHLLNRQEIPPTLLMGMRPLCSAQYERMFNTTRIPGVEKDYLCHLQDSQHVAVFHQGRFFRVGTHSSNGLLSPRALEQQFQYILDDPSPACPLEEHLAALTAAPRSMWAQVRESVKTHAATALETVEGAAFFVSLDSEPAGLTRENPAASLDTYAHTLLTGQGHDRWFDKSFTLIVFSNGKLGLSVEHSWADCPVAGHLWEFTLATECFQLGYATDGHCKGHPDPALPKPQRLQWDLPKQIQPSISLALRGAKTLSGNIDCHVFPFFHFGKSFIKGCHVSSDSFIQLVLQLAHFRDRGQFCLTYESAMTRLFLEGRTETVRSCTREACQFVRAMENKERTDQQCLALFREAVDKHQALLKAAMSGQGIDRHLFALYIMSRLLHMQSPFLTQVQSQQWLLSTSQIPVQQTHLFDVHNYPDYVSSGGGFGPAHDHGYGVSYIFMGENAISFHISSKQSSTETDSHRLGQHIEDALLDVASLFQAGQQFKRQFTGLGESSGWKYSNLSCKTVDPNIPKSSTNL"}, "B2": {"name": "CPT1C-mTurquoise2 (protein, UniProt Q8TCG5 1-803)", "chain": "MAEAHQAVGFRPSLTSDGAEVELSAPVLQEIYLSGLRSWKRHLSRFWNDFLTGVFPASPLSWLFLFSAIQLAWFLQLDPSLGLMEKIKELLPDWGGQHHGLRGVLAAALFASCLWGALIFTLHVALRLLLSYHGWLLEPHGAMSSPTKTWLALVRIFSGRHPMLFSYQRSLPRQPVPSVQDTVRKYLESVRPILSDEDFDWTAVLAQEFLRLQASLLQWYLRLKSWWASNYVSDWWEEFVYLRSRNPLMVNSNYYMMDFLYVTPTPLQAARAGNAVHALLLYRHRLNRQEIPPTLLMGMRPLCSAQYEKIFNTTRIPGVQKDYIRHLHDSQHVAVFHRGRFFRMGTHSRNSLLSPRALEQQFQRILDDPSPACPHEEHLAALTAAPRGTWAQVRTSLKTQAAEALEAVEGAAFFVSLDAEPAGLTREDPAASLDAYAHALLAGRGHDRWFDKSFTLIVFSNGKLGLSVEHSWADCPISGHMWEFTLATECFQLGYSTDGHCKGHPDPTLPQPQRLQWDLPDQIHSSISLALRGAKILSENVDCHVVPFSLFGKSFIRRCHLSSDSFIQIALQLAHFRDRGQFCLTYESAMTRLFLEGRTETVRSCTREACNFVRAMEDKEKTDPQCLALFRVAVDKHQALLKAAMSGQGVDRHLFALYIVSRFLHLQSPFLTQVHSEQWQLSTSQIPVQQMHLFDVHNYPDYVSSGGGFGPADDHGYGVSYIFMGDGMITFHISSKKSSTKTDSHRLGQHIEDALLDVASLFQAGQHFKRRFRGSGKENSRHRCGFLSRQTGASKASMTSTDF"}, "B3": {"name": "mouse CPT1C stably expressed in HeLa cells (CPT1C cells) (protein, UniProt Q8BGD5 1-798)", "chain": "MAEAHQASSLLSSLSSDGAEVELSSPVWQEIYLCALRSWKRHLWRVWNDFLAGVVPATPLSWLFLFSTIQLACLLQLDPSLGLMEKIKELLPDWGGQHHQLQGFLSAAVFASCLWGALIFTLHVALRLLLSHHGWLLEPHGAMSSPTKTWLALVRIFSGRHPRLFSFQRALPRQPVPSAQETVRKYLESVRPVLGDDAFDRATALANDFLRLHAPRLQLYLQLKSWCTSNYVSDWWEEFVYLRSRGSLINSTYYMMDFLYVTPTPLQAARAGNAVHTLLLYRHLLNRQEISPTLLMGMRPLCSAQYERMFNTTRIPGVEKDHLRHLQDSRHVAVFHRGRFFRVGTHSPNGLLSPRALEQQFQDILDDPSPACPLEEHLAALTAAPRSMWAQVRESVKTHAATALEAVEGAAFFVSLDSEPAGLTREDPAASLDAYAHALLAGRGHDRWFDKSFTLIVFSNGKLGLSVEHSWADCPVSGHLWEFTLATECFQLGYATDGHCKGHPDPTLPQPQRLQWDLPEQIQPSISLALRGAKTLSGNIDCHVFPFSHFGKSFIKCCHVSSDSFIQLVLQLAHFRDRGQFCLTYESAMTRLFLEGRTETVRSCTREACQFVRAMDNKETDQHCLALFRVAVDKHQALLKAAMSGQGIDRHLFALYIMSRLLHMQSPFLTQVQSQQWLLSTSQVPVQQTHLIDVHNYPDYVSSGGGFGPAHDHGYGISYIFMGENAITFHISSKKSSTETDSHRLGQHIENALLDVASLFRVGQHFKRQFRGENSDYRYNFLSCKTVDPNTPTSSTNL"}},
  "key": {"[1]": {"target": "T1, mCitrine-protrudin (H. sapiens) (UniProt Q5T4F4)", "T1 sequence": "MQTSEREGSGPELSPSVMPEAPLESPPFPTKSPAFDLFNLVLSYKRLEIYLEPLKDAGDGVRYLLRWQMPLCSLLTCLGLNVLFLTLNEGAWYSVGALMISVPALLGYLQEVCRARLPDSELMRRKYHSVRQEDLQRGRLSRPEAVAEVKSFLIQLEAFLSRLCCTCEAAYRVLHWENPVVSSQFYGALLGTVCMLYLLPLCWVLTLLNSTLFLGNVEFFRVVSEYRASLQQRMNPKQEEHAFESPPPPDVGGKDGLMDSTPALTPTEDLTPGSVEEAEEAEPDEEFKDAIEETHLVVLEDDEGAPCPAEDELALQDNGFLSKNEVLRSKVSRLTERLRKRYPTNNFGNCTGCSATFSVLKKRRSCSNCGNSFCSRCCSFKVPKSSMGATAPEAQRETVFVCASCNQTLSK", "test": "co-IP; GFP-Trap immunoprecipitation of mCitrine-protrudin from lysates of transfected HeLa cells (supernatant after an extra 100000 xg centrifugation), immunoblot of input and IP; in Figure 3F cells treated with TOFA (1 hr at 20 µg/mL) or not"}, "[2]": {"target": "T1, mCitrine-protrudin (H. sapiens)", "test": "co-IP; GFP-Trap immunoprecipitation of mCitrine-protrudin from lysates of transfected HeLa cells (supernatant after an extra 100000 xg centrifugation), immunoblot of input and IP; in Figure 3F cells treated with TOFA (1 hr at 20 µg/mL) or not", "remark": "listed apart in the source"}, "protrudin-SYFP2 (human)": {"target": "T2, protrudin-SYFP2 (human) (UniProt Q5T4F4)", "T2 sequence": "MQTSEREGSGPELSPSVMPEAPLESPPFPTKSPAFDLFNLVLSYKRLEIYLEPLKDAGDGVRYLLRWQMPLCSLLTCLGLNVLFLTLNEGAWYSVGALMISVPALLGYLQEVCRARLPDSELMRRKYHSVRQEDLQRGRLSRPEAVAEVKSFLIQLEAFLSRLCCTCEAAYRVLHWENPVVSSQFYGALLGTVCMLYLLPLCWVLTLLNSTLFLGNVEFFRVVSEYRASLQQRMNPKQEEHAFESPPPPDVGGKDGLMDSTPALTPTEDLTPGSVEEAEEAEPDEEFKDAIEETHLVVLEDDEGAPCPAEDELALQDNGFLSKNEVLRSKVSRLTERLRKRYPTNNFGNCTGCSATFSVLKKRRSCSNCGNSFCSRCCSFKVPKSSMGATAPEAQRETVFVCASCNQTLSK", "test": "FRET or BRET; FRET in transiently transfected HEK293 cells, mTurquoise2 donor and SYFP2 acceptor, increase of donor intensity after photobleaching; in Figure 3E cells in complete medium (25 mM glucose) or medium without glucose (4 hr)"}},
  "note": "Like-named read-outs stand apart in the source and are kept apart here. Results are given in words; binding and its absence hold for the method and conditions named. In cells and extracts the contact can be indirect. Some entries that bind do so weakly or less than the wild type. For some of these results: Where a sequence is shown, tags or fusion partners need not be part of it.",
  "data": [
    {"molecule": "kinesin-1 (KIF5B) (from UniProt P33176 1-963)", "values": [
      {"measurement": "binding", "setting": "[1]", "result": "binds"}
    ]},
    {"molecule": "B1", "values": [
      {"measurement": "binding", "setting": "[2]", "result": "binds"}
    ]},
    {"molecule": "B2", "values": [
      {"measurement": "binding", "setting": "protrudin-SYFP2 (human)", "result": "binds"}
    ]},
    {"molecule": "B3", "values": [
      {"measurement": "binding", "setting": "[2]", "result": "binds"}
    ]}
  ]
}
